Test results taken from paper PMC6028381.

Chains of the proteins cited; added tags and fusions are not shown. Lines headed by an entry give the natural chain unless they say otherwise; changes in a name come on top.
UniProt Q13315: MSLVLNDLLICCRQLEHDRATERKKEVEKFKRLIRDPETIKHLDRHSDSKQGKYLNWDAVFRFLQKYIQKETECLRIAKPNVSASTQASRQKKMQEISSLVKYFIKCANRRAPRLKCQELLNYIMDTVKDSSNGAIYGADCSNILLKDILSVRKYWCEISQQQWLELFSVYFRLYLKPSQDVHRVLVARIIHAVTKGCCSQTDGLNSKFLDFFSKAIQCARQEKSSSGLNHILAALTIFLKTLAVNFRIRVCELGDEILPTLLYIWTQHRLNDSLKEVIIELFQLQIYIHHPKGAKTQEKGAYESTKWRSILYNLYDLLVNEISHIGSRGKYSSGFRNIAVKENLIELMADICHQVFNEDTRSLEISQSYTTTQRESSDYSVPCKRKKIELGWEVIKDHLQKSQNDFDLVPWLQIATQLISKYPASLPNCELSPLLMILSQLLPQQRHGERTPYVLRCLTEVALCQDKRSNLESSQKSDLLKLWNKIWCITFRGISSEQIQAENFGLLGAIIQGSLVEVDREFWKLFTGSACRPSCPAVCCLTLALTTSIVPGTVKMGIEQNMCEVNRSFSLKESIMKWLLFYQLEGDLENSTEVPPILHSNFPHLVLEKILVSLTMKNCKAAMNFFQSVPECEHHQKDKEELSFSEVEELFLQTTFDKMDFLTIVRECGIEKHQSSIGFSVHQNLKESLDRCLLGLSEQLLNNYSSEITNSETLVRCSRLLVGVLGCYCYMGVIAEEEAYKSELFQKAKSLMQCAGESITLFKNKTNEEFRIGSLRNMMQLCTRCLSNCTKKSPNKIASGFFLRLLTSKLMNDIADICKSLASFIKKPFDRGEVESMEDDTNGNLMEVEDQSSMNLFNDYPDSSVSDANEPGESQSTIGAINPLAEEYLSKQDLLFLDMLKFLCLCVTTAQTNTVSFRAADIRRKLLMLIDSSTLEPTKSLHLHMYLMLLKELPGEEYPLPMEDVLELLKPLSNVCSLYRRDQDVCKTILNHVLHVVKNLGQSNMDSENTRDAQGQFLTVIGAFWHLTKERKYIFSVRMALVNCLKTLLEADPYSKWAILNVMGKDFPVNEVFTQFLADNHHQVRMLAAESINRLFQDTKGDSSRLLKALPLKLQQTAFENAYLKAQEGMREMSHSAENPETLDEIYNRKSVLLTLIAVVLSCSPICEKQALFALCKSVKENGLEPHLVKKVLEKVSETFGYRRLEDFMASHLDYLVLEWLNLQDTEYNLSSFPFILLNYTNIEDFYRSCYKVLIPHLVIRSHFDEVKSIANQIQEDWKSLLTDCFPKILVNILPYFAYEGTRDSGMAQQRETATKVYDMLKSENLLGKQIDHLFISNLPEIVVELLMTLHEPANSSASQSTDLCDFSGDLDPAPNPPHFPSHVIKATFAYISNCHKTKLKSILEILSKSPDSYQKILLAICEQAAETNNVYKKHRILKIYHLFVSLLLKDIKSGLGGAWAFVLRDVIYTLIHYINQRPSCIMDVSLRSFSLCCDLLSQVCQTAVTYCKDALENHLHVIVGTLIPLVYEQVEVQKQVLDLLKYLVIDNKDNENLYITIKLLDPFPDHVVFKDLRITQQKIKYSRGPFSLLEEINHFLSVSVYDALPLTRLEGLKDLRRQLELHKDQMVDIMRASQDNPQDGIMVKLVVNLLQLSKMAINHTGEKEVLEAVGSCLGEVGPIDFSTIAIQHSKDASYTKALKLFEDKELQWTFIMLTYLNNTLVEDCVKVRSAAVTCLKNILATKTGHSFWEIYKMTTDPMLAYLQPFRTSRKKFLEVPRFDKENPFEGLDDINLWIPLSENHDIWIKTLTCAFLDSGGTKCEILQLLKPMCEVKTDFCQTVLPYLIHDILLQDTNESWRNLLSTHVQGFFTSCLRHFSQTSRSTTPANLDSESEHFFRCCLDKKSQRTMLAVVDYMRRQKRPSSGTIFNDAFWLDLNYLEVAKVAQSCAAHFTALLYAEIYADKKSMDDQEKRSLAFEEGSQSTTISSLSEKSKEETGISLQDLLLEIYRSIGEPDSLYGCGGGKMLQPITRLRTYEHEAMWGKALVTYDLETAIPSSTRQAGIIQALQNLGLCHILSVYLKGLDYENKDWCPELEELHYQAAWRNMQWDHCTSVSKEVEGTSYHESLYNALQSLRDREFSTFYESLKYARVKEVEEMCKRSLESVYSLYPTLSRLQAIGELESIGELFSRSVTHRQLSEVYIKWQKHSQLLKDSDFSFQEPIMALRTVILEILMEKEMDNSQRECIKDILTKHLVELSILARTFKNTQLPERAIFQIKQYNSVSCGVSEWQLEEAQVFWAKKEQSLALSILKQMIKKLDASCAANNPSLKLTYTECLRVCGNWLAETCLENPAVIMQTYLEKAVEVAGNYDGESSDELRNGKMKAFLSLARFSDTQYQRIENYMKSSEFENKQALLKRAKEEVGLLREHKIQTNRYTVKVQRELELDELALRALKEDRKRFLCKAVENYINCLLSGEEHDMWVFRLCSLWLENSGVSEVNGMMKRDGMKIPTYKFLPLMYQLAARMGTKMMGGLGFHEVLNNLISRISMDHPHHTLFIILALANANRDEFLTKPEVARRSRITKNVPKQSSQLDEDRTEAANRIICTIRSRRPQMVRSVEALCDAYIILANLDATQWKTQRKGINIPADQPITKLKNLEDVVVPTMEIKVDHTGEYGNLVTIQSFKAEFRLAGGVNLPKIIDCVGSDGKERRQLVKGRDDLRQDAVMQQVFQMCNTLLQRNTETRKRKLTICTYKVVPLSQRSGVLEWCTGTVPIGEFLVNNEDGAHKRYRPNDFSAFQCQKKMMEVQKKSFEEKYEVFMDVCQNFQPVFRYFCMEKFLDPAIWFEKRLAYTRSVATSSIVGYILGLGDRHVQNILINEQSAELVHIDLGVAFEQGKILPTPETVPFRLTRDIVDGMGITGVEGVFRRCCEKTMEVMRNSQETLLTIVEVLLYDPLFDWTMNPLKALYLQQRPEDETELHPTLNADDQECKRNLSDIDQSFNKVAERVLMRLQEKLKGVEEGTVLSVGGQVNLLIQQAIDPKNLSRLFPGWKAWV
UniProt P16403: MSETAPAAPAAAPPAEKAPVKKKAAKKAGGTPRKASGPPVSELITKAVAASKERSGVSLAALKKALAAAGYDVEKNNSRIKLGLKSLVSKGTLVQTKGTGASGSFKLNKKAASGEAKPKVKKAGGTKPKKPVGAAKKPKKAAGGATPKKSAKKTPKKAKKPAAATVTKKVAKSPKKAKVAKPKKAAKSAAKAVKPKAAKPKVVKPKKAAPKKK

Molecular target: ATM (ataxia telangiectasia mutated), endogenous in HeLa cells (human (endogenous in HeLa)) (UniProt Q13315)
Assay: affinity purification with mass spectrometry; total HeLa cell lysates immunoprecipitated with anti-ATM or anti-IgG antibodies; SDS-PAGE, silver staining, mass spectrometry

Substance: linker histone H1.2, endogenous in HeLa cells (from UniProt P16403 1-213)
- binding: binds

No constants are given. Whether binding was seen depends on the method and setting. In cells and extracts the contact can be indirect. Here binding means that the protein was enriched with, or labelled near, the bait; the list need not be complete.
